Assay results: PubChem BioAssay AID2685 (National Center for Advancing Translational Sciences (NCATS), 2010)
About 2,100 (0.66%) of roughly 320,000 compounds were called active. Inconclusive results, whose numbers are uncertain, are shown with a selection of clear calls. The call rests on the fitted dose curve; in most records, active means well fitted inhibition curve with a large enough effect in the signal ratio, with a control signal flat (not every such curve was filed as active); inconclusive means small, poorly fitted or top-dose-only effect, or effect the other way, or a change in a side signal; inactive means flat fitted curve, though single readings scatter; the % refers to the signal ratio. Where the call is inconclusive, the potency comes from a doubtful curve fit.

Assay: qHTS Assay for Lipid Storage Modulators in Drosophila S3 Cells
Details: BODIPY lipid droplet fluorescence, 18-24 h, cells fed with added oleic acid; lipid storage change, negative = inhibition: at 46.1 µM (top of the series) unless noted
Method in brief: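 Laser-scanning cytometry quantifies lipid droplet accumulation (500–530 nm total intensity; droplet/cell object ratio) in oleic acid-fed (400 uM added) Drosophila S3 cells treated with a concentration series. 20 uM Triacsin C defined 100% inhibition.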
On the % scale 0 is the no-effect control and ±100 the full control effect; potency means the concentration at half of the fitted maximal effect.

Row | SMILES | Potency | lipid storage change, negative = inhibition
1 | Cc1ccccc1NC(=O)C1CCC(C)(C(=O)O)C1(C)C (stereo not drawn) | inconclusive: 25.9 µM [falling, single point] | 
2 | CN1CCN(CC(=O)N2c3ccccc3Sc3ccccc32)CC1 |  | inconclusive: -7.14%
3 | Cc1ccnc(NC(=O)CCC(=O)N(Cc2ccco2)C(C(=O)NC(C)C)c2ccc(F)cc2)c1 (stereo not drawn) |  | inconclusive: -0.797%
4 | O=C(CN(C(=O)CCC(=O)Nc1nccs1)c1ccc(F)cc1)NCC1CCCO1 (stereo not drawn) |  | inconclusive: 24.9%
5 | CC(C)(C)c1ccc(C(=O)NCc2nnc(SCC(=O)NCc3ccco3)o2)cc1 |  | inconclusive: -25%
6 | Cn1c(=O)n(CC(=O)NCC2CCCO2)c(=O)c2c3c(sc21)CCCC3 (stereo not drawn) |  | inconclusive: 31%
7 | O=C(Cc1ccccc1)NCC(=O)Nc1ccc(OC(F)(F)F)cc1 | inconclusive: 16.4 µM [activator, partial curve] | 
8 | CCN(CC)C(=O)c1sc(NC(=O)c2cccc([N+](=O)[O-])c2)c(C#N)c1C |  | inconclusive: 38.6%
9 | COc1ccc(Cl)cc1NC(=O)CN(C)C(=O)c1ccc(-n2nc(C)cc2C)cc1 |  | inconclusive: 15.8%
10 | CC(C(=O)N1CCOCC1)N1C(=O)C2C3C=CC(C4CC34)C2C1=O (stereo not drawn) |  | inconclusive: 7.32%
11 | COc1ccccc1-n1cnc(N)c1C(C)=O | inconclusive: 20.6 µM [falling, single point] | 
12 | O=C(Nc1ccc(N2CCOCC2)cc1)c1ccc2nc(-c3ccco3)c(-c3ccco3)nc2c1 |  | inconclusive: -9.85%
13 | Cc1ccc(C(=O)N(Cc2nnc(-c3ccc(Cl)cc3)o2)C2CC2)o1 | inconclusive: 18.4 µM [falling, partial curve, poor fit] | 
14 | COc1ccc2nc(SCC(=O)Nc3ccc4sc(C)nc4c3)c(C#N)cc2c1 |  | inconclusive: -16%
15 | COc1ccc(OCC(=O)Nc2sc3c(c2C(=O)NCC2CCCO2)CCC3)cc1 (stereo not drawn) |  | inconclusive: -68.2%
16 | CC(C)c1ccc(C(O)c2nc3ccccc3n2C)cc1 (stereo not drawn) |  | inconclusive: -19.1%
17 | CC(=O)c1cnc(Nc2nc(C)c3cccc(C)c3n2)nc1C |  | inconclusive: 7.6%
18 | CCCc1[nH]nc2c1C(CCC)C(C#N)=C(N)O2 (stereo not drawn) |  | inconclusive: -4.38%
19 | O=C(NC(=S)Nc1ccc2[nH]c(=O)[nH]c2c1)c1cncc(Br)c1 | inconclusive: 0.731 µM [cytotoxic, partial curve, poor fit] | 
20 | CC(C)(C)NC(=O)c1ccc(C(=O)NC(C)(C)C)cc1 |  | inconclusive: 0.306%
21 | COCCCNc1nc2ccccc2nc1NS(=O)(=O)c1ccc(OC)cc1 |  | inconclusive: 4.43%
22 | Cc1ccc2c(c1)N(CCCC(=O)NCC1COc3ccccc3O1)C(=O)CO2 (stereo not drawn) | inconclusive: 29.1 µM [rising, partial curve] | 
23 | CN(CC(=O)Nc1ccc(F)cc1)C(=O)CSc1nncs1 | inconclusive: 0.103 µM [activator, full curve, poor fit] | 
24 | O=C(O)C1CSC2(c3ccc(F)cc3)CCC(=O)N12 (stereo not drawn) | inconclusive: 0.0291 µM [activator, full curve] | 
25 | O=C(NCC1CCCO1)c1cc(-c2ccccc2)nc2ccccc12 (stereo not drawn) |  | inconclusive: 5.5%
26 | CN(C)CCNC(=O)CCCNC(=O)Cn1cnc2sc3c(c2c1=O)CCCC3 |  | inconclusive: -24%

Row | SMILES | Potency | lipid storage change, negative = inhibition
27 | Cn1c(=O)c2c(nc(CO)n2C)n(C)c1=O |  | inconclusive: -19.3%
28 | Clc1ccc(Cc2noc(CN3CCN(c4ccccc4)CC3)n2)c(Cl)c1 |  | inconclusive: 16.4%
29 | CC(=O)c1ccccc1C(=O)N1CCC(n2nccc2NC(=O)C2CC2)CC1 | inconclusive: 0.103 µM [activator, full curve, poor fit] | 
30 | Cc1ccccc1NC(=O)CSc1nnc(NC(=O)c2ccco2)s1 |  | inconclusive: 8.49%
31 | CN(C)c1cccc(/C=C(\C#N)c2ccccc2)c1 |  | inconclusive: 14.5%
32 | COC(=O)Cn1ccc(N(C)C)c(C#N)c1=O | inconclusive: 0.58 µM [activator, single point] | 
33 | COc1cc(NS(=O)(=O)c2ccc(C)cc2C)cc(OC)c1OC |  | inconclusive: -20.5%
34 | COc1ccccc1CN(Cc1cc2cc(C)cc(C)c2[nH]c1=O)Cc1nnnn1CC1CCCO1 (stereo not drawn) |  | inconclusive: 2.31%
35 | O=C(CC(Nc1ccc(F)cc1)c1ccccc1)c1ccccc1 (stereo not drawn) |  | inconclusive: -18.7%
36 | O=C(NCCN1CCOCC1)c1cccnc1SCc1ccccc1Cl |  | inconclusive: 7.24%
37 | CCC(C)NS(=O)(=O)c1ccc(NC(=O)Cc2ccc(OC)cc2)cc1 (stereo not drawn) | inconclusive: 0.58 µM [falling, full curve, poor fit] | 
38 | Cc1ccc(NS(=O)(=O)c2ccc3c(c2)NC(=O)C(C)C(=O)N3)c(Br)c1 (stereo not drawn) |  | inconclusive: 8.99%
39 | c1ccc(CC(Nc2ccccn2)c2ccccc2)cc1 (stereo not drawn) |  | inconclusive: 10.9%
40 | O=C(CSc1cccc[n+]1[O-])Nc1ccc2c(c1)OCO2 |  | inconclusive: 6.87%
41 | O=S(=O)(Nc1ncccn1)c1ccc(-n2cnnn2)cc1 | inconclusive: 1.16 µM [falling, single point] | 
42 | Nc1nc(O)c(CC(=O)O)s1 |  | inconclusive: -4.22%
43 | O=C(Cc1ccccc1F)c1ccc(O)cc1O |  | inconclusive: 19.3%
44 | Cc1ccnc(NC(=O)c2ccc(NC(=O)c3ccco3)cc2)c1 |  | inconclusive: -17.3%
45 | O=C(CCOc1ccccc1)Nc1ccc(Br)cc1 |  | inconclusive: -21.9%
46 | Cc1ccn2cc(-c3cccc([N+](=O)[O-])c3)nc2c1 |  | inconclusive: 10.3%
47 | COc1cc(/C=N/NC(=O)Nc2ccccc2)ccc1OC(C)=O |  | inconclusive: 20.3%
48 | CN(CCO)c1nc(NCc2ccccc2)c2cnn(C)c2n1 |  | inconclusive: 16.9%
49 | Cc1cc(C)c(C)c(S(=O)(=O)N2CCC(C(=O)Nc3ccncc3)CC2)c1C | inconclusive: 0.82 µM [falling, full curve, poor fit] | 
50 | Cc1cc(C)n(CC(=O)NC2CCCc3c2cnn3-c2ccc(C)c(C)c2)n1 (stereo not drawn) | active: 16.4 µM | 
51 | COc1ccc(Cl)cc1NC(=O)C1CCCN(S(=O)(=O)c2cccc3nonc23)C1 (stereo not drawn) |  | inactive: 6.59%
52 | O=C(COC(=O)CNC(=O)c1sc2ccccc2c1Cl)Nc1c(Cl)cc(Cl)cc1Cl | inconclusive: 5.17 µM [rising, single point] | 

Row | SMILES | Potency | lipid storage change, negative = inhibition
53 | COc1cccc(OCCNCc2ccccc2)c1 | inconclusive: 32.6 µM [activator, single point] | 
54 | O=C(/C=C/c1ccccc1)Nn1cnnc1 | inconclusive: 23.1 µM [falling, partial curve] | 
55 | CC(C)(C)c1nnc(NC(=O)C2CC(=O)N(CCc3ccc(F)cc3)C2)s1 (stereo not drawn) | inconclusive: 29.1 µM [activator, single point] | 
56 | COc1ccc(F)cc1CN1CCN(C(=O)CCC(=O)Nc2nnc(C(C)C)s2)CC1 |  | inconclusive: 16.5%
57 | CCOC(=O)C1=C(C)N(C)C(=S)NC1c1ccc(Cl)cc1Cl (stereo not drawn) |  | inconclusive: -0.493%
58 | CCCCNc1ncnc2c1cnn2-c1ccc(C)cc1C |  | inconclusive: 73.5%
59 | CCN1CN(Cc2ccccc2)CNC1=S | inconclusive: 0.0046 µM [falling, full curve, poor fit] | 
60 | COc1ccc(/C=N/NS(C)(=O)=O)c(OC)c1 | inconclusive: 23.1 µM [activator, partial curve, poor fit] | 
61 | CCCc1ccc(NS(=O)(=O)c2c(C)oc(C)c2C(=O)OC)cc1 |  | inconclusive: 25.6%
62 | Cc1ccc2c(c1)N(CC(=O)N1CCOCC1)C(=O)C(C)O2 (stereo not drawn) | inconclusive: 25.9 µM [activator, single point] | 
63 | C=C(C)Cn1c(C)cc(C)c(S(=O)(=O)c2ccc(C)cc2)c1=O |  | inconclusive: -0.706%
64 | Fc1ccc(Nc2nc(N3CCOCC3)nc(N3CCOCC3)n2)cc1Cl |  | inconclusive: -100%
65 | COc1ccccc1CNC(=O)C1COc2ccccc2O1 (stereo not drawn) |  | inconclusive: -0.576%
66 | CC1CCCC(C)N1C(=O)c1ccc(S(=O)(=O)N2CCCC2)cc1 (stereo not drawn) | inconclusive: 4.11 µM [falling, single point] | 
67 | CC(C)CC(=O)NC(=S)NNC(=O)c1cccc([N+](=O)[O-])c1 |  | inconclusive: 17.8%
68 | C=CCOc1nc2c(c(=O)n(Cc3ccc(Cl)cc3)c(=O)n2C)n1C |  | inconclusive: 20%
69 | Cc1ccc(CSc2nc3c(cc2C#N)CCC3)cc1 |  | inconclusive: 12.9%
70 | COc1cccc(/C=N/Nc2ncnc3scc(-c4ccccc4)c23)c1O |  | inconclusive: -8.77%
71 | Cc1ccccc1CSc1nnnn1-c1ccc(C(N)=O)cc1 |  | inconclusive: 12.1%
72 | Cc1ccc(NC(=O)Nc2cccc3ccccc23)cc1 |  | inconclusive: 39.9%
73 | CCn1cc(C(=O)N2CCc3ccccc3C2)c(=O)c2cc(S(=O)(=O)N3CCCCC3)ccc21 |  | inconclusive: 26.8%
74 | CSCCC(NC(=O)COc1ccccc1)C(=O)NCc1cccs1 (stereo not drawn) | inconclusive: 6.51 µM [falling, single point] | 
75 | NS(=O)(=O)c1ccc(Nc2nc(-c3ccc4ccccc4c3)cs2)cc1 | inconclusive: 29.1 µM [rising, single point] | 
76 | Clc1ccc(/C=N/N2CCN(Cc3ccccc3Cl)CC2)cc1 |  | inconclusive: 6.63%
77 | COc1ccccc1N1CCN(C(=O)C2CCN(S(=O)(=O)c3ccc4c(c3)CC(C)N4C(=O)C3CC3)CC2)CC1 (stereo not drawn) | inconclusive: 6.51 µM [falling, single point] | 
78 | COc1ccc(Nc2sc(C(=O)Nc3cccc(Cl)c3)c(N)c2C(=O)Nc2ccccc2OC)cc1 | inconclusive: 18.4 µM [cytotoxic, single point] | 

Copied from the list:
lipid storage change, negative = inhibition with Fc1ccc(Nc2nc(N3CCOCC3)nc(N3CCOCC3)n2)cc1Cl reads inconclusive: -100%
lipid storage change, negative = inhibition with CCCc1ccc(NS(=O)(=O)c2c(C)oc(C)c2C(=O)OC)cc1 reads inconclusive: 25.6%
Potency with CC(C)(C)c1nnc(NC(=O)C2CC(=O)N(CCc3ccc(F)cc3)C2)s1 (stereo not drawn) reads inconclusive: 29.1 µM [activator, single point]
lipid storage change, negative = inhibition with COc1ccc(F)cc1CN1CCN(C(=O)CCC(=O)Nc2nnc(C(C)C)s2)CC1 reads inconclusive: 16.5%
